From PubChem BioAssay record AID1159506 (NCATS, 2015).

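Genome-wide siRNA knockdown in TC32 Ewing sarcoma cells, comparing luciferase light from an NR0B1-promoter reporter with a CMV-promoter reporter 48 hours after transfection. Each siRNA was applied at 20 nM. A z-score of the log NR0B1-over-CMV signal, less the median of siRNAs with the same seed; more negative means a stronger specific loss of the NR0B1 reporter.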

The strongest results of the screen are mostly left out here. Sequences are the guide (antisense) strand, without overhang.

{"strand": "UUAUAGGAGAAAUGAGUCU", "target gene": "IFNA21", "seed-corrected z-score": "0.4678"}
{"strand": "AUCUCGAUGAGAAACACGG", "target gene": "AOC1", "seed-corrected z-score": "-0.02617"}
{"strand": "UUUGGAACUGUUCAGGGCA", "target gene": "RDM1", "seed-corrected z-score": "0.1401"}
{"strand": "UGAAUUUCGUAGGAUUUUG", "target gene": "PCDHA1", "seed-corrected z-score": "-1.184"}
{"strand": "UUCUCGUAGCUCUUCAGCC", "target gene": "POR", "seed-corrected z-score": "0.2407"}
{"strand": "UUUAUGAGAAUGUUCACUC", "target gene": "CUX2", "seed-corrected z-score": "-0.08574"}
{"strand": "AACAUGUCUAUUCAUACAG", "target gene": "FAM35A", "seed-corrected z-score": "-0.7587"}
{"strand": "UCAUUAUCCAAAGCUGCUC", "target gene": "ZNF226", "seed-corrected z-score": "-0.5428"}
{"strand": "AAAGAUAUCGUCCGGGUGG", "target gene": "PPARA", "seed-corrected z-score": "-0.02619"}
{"strand": "UCUGUCAUAGCGGCUGACC", "target gene": "CEACAM18", "seed-corrected z-score": "0.1247"}
{"strand": "UGCCGGUCAUCGUAAGUGC", "target gene": "TNFAIP1", "seed-corrected z-score": "-1.175"}
{"strand": "ACCAUUGCCACCCGUCUCU", "target gene": "APOC4", "seed-corrected z-score": "0.681"}
{"strand": "AUAGUAACACCCUUUACUC", "target gene": "YEATS4", "seed-corrected z-score": "1.119"}
{"strand": "UUAAGUUCUGAUAACAGAC", "target gene": "IDE", "seed-corrected z-score": "-0.5759"}
{"strand": "UUGGUGCUCAUGGGAGAGG", "target gene": "NUDT2", "seed-corrected z-score": "-0.3173"}
{"strand": "UUCCGUGUGGUUCAUAUCC", "target gene": "GPR143", "seed-corrected z-score": "-0.4078"}
{"strand": "UCACCAACAGCGUAUAAGC", "target gene": "LOC389906", "seed-corrected z-score": "-0.2433"}
{"strand": "AAAAUUGCUAGGAAAAAUG", "target gene": "PRSS44", "seed-corrected z-score": "0.8923"}
{"strand": "UUCUUAUCGUUGCAGAUUC", "target gene": "MCMDC2", "seed-corrected z-score": "1.618"}
{"strand": "UGACAGAUACGUUAUGGGC", "target gene": "ELOF1", "seed-corrected z-score": "0.4731"}
{"strand": "UUUGGGUUAUGUCCUUAGG", "target gene": "CELF2-AS2", "seed-corrected z-score": "0.826"}
{"strand": "AAACCUAAUGUAUGGAUGG", "target gene": "MMP27", "seed-corrected z-score": "0.3145"}
{"strand": "UUACUGGUGACUAACAUCU", "target gene": "MAGED4B", "seed-corrected z-score": "0.7859"}
{"strand": "UCAUUGUUCCUGUCUGCUG", "target gene": "FAM71F2", "seed-corrected z-score": "-0.1456"}
{"strand": "UUCUGAAAUACGAAGCGCG", "target gene": "MUS81", "seed-corrected z-score": "0.8276"}
{"strand": "UACCCAUAAGGCGUGAUGC", "target gene": "STRAP", "seed-corrected z-score": "0.8842"}
{"strand": "UGAACUCCAAUGUUAAGCG", "target gene": "ATG7", "seed-corrected z-score": "0.9961"}
{"strand": "UAACCGGAGAUGACCAUUC", "target gene": "RAPGEF6", "seed-corrected z-score": "-0.4619"}
{"strand": "UCUGUUGUUGUGACGAGGC", "target gene": "IL2RA", "seed-corrected z-score": "-0.164"}
{"strand": "UCGGUCCUAAGGUCAGCUC", "target gene": "CALML3", "seed-corrected z-score": "-0.9925"}

Once more, the final 4:

| strand | target gene | seed-corrected z-score |
|---|---|---|
| `UGAACUCCAAUGUUAAGCG` | ATG7 | 0.9961 |
| `UAACCGGAGAUGACCAUUC` | RAPGEF6 | -0.4619 |
| `UCUGUUGUUGUGACGAGGC` | IL2RA | -0.164 |
| `UCGGUCCUAAGGUCAGCUC` | CALML3 | -0.9925 |